Measurements from article PMC1717016.
These are yes or no findings as the source states them, for the method shown. In cells and extracts the contact can be indirect. Sequences can lack the tags named with a protein.

Target: T1, Tat-GFP fusion protein (HIV-1 transactivator of transcription fused to green fluorescent protein) (HIV-1), P04608
T1 chain: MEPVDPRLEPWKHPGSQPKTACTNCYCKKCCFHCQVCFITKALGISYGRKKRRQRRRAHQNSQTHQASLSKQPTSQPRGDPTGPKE
Experiment: FRET or BRET; homo-FRET: two-photon polarization anisotropy (r) microscopy of GFP or YFP fusion proteins in single immobilised living cells; polarizing beam splitter and two-detector system
Conditions: remark: other sources report otherwise

B1: Tat-GFP fusion protein (HIV-1 transactivator of transcription fused to green fluorescent protein), P04608 1-86 (protein)
chain: T1 chain
For B1, the binding was “no binding”.
